{
  "source": "patent US20070003551A1",
  "binders": {"B1": {"name": "Fab-expressing phage clone S4 (Fab, V domains shown)", "VH": "VQLLEESGGGLVQPGGSLRLSCTASRFTLSTYEMNWVRQAPGKGLEWVSYISTSGGIMYYADSVRGRFTISRDNAKNSLYLQMNSLRAEDTALYYCATVTLDGNNPFENWGQGTLVT", "VL": "AAELTQSPLSLSVTLGQPASIACKSSHSLARSDGVSLMNWVHLRPGRSPRRLIYDVSKRENGVPDRFSGSGSGTDFTLEINRVEAEDVGLYYCLQYAHWPHTFGQGTKLEIKR"}},
  "key": {"[1]": {"target": "purified human platelet glycoprotein IIb/IIIa (human)", "experiment": "phage ELISA on coated purified GPIIb/IIIa (2 ug/ml)"}, "[2]": {"target": "purified human platelet glycoprotein IIb/IIIa (human)", "experiment": "Western blot of non-reduced purified human platelet GPIIb/IIIa"}},
  "note": "These are yes or no findings as the source states them, for the method shown. Binding can be weak; no strength is given.",
  "data": [
    {"binder": "B1", "values": [
      {"measurement": "binding", "setting": "[1]", "result": "binds"},
      {"measurement": "binding", "setting": "[2]", "result": "binds"}
    ]}
  ]
}
